# According to the supplement of paper PMC10849652:
# Chains of the proteins cited; added tags and fusions are not shown. Lines headed by an entry give the natural chain unless they say otherwise; changes in a name come on top.
# UniProt O43488: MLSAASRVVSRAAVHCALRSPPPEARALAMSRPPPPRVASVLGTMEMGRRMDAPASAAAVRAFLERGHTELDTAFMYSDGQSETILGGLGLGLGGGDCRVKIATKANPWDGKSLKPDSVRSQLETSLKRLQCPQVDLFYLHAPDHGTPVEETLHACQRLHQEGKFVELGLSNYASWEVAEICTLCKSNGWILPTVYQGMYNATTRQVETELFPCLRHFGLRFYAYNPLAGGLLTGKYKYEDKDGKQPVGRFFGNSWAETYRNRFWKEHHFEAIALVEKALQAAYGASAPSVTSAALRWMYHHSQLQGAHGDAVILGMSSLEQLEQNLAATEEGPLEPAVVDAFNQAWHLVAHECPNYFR
# UniProt P55196: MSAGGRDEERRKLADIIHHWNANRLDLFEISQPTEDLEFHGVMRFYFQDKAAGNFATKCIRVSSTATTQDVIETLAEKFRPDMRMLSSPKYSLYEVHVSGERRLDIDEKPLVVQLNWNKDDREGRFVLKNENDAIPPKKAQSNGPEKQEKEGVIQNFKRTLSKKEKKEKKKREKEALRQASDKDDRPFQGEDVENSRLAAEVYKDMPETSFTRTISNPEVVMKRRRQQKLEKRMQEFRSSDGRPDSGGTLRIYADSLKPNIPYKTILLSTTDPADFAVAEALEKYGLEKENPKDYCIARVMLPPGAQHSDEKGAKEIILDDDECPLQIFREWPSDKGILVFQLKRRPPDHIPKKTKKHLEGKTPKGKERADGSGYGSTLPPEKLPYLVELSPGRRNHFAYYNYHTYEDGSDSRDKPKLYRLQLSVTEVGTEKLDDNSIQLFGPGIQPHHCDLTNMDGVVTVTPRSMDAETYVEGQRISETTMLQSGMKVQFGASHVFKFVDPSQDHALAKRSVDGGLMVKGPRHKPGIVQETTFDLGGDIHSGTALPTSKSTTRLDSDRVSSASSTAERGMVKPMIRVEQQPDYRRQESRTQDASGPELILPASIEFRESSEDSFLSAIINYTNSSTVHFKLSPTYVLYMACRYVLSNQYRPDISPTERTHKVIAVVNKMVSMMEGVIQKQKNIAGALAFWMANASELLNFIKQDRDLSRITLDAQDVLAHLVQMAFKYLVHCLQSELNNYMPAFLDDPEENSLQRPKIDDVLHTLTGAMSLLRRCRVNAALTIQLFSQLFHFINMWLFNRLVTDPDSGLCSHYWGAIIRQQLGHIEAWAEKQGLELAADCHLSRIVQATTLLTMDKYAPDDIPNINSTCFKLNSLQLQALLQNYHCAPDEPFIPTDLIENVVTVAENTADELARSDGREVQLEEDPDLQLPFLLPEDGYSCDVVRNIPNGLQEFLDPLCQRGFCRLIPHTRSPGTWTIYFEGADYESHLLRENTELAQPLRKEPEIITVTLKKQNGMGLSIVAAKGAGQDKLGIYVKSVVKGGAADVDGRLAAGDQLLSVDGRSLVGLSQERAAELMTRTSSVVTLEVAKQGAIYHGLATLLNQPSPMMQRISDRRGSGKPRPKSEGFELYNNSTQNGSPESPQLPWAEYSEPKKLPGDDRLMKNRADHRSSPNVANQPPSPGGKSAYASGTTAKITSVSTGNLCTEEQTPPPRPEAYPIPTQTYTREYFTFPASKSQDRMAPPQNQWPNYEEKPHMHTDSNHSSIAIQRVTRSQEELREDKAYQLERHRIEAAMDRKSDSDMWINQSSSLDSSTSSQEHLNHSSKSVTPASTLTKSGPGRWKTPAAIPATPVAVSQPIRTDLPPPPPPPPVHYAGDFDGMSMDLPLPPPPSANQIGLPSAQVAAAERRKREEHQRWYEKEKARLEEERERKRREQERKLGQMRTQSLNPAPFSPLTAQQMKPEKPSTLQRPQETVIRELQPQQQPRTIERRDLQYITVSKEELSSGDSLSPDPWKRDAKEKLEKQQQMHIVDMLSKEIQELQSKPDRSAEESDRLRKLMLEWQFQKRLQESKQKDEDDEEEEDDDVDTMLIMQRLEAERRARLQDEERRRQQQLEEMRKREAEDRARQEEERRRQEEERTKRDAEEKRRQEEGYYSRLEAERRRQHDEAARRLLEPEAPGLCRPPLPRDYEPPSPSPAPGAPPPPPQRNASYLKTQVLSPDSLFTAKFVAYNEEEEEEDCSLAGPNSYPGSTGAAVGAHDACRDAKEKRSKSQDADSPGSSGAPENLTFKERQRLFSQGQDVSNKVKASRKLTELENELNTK
# UniProt P23526: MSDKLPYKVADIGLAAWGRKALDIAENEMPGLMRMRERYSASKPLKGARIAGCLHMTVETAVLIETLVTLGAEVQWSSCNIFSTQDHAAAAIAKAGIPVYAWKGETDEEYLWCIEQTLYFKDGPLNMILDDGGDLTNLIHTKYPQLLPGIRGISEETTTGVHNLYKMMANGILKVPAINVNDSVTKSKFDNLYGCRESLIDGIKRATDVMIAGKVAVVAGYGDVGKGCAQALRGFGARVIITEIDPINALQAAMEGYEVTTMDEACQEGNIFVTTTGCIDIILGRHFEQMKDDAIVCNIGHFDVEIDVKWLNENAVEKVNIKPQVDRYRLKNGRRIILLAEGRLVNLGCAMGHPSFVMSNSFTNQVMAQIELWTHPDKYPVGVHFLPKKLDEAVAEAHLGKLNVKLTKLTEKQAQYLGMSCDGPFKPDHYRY
# UniProt Q9GZN1, whole entry, looked up: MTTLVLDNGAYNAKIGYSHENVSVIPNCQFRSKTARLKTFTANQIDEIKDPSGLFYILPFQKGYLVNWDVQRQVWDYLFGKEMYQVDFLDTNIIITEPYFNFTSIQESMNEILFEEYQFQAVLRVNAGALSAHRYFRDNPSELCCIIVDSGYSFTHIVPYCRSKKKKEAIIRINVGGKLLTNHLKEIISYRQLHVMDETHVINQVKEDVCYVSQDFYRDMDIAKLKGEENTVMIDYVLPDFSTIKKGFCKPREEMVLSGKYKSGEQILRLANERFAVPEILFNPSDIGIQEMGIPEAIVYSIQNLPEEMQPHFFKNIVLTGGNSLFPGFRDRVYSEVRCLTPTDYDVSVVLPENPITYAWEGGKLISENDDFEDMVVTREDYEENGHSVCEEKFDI
# UniProt Q16186: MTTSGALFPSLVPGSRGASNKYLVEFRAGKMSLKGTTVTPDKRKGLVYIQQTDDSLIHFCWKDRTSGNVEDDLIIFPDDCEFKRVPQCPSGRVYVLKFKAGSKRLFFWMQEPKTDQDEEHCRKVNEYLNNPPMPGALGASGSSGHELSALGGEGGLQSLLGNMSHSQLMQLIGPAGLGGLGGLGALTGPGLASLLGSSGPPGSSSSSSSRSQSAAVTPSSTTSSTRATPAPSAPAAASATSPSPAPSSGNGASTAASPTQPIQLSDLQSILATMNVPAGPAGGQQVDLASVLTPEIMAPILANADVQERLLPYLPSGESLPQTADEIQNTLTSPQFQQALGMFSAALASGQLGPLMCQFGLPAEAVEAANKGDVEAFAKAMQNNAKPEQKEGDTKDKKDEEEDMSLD
# UniProt O43865, whole entry, looked up: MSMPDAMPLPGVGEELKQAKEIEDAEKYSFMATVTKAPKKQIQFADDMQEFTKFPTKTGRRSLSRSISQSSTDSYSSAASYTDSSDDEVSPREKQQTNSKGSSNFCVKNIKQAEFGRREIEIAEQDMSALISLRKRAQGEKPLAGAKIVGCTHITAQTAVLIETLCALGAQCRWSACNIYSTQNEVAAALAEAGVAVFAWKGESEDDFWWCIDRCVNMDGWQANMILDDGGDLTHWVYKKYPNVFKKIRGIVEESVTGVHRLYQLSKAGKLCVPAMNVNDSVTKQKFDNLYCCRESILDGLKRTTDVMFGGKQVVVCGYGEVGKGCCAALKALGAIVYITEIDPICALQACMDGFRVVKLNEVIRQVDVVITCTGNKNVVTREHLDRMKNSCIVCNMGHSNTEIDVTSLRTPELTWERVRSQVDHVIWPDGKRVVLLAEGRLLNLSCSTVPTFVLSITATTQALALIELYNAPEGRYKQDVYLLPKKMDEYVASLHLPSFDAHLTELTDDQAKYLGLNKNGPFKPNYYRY
# UniProt Q8N142: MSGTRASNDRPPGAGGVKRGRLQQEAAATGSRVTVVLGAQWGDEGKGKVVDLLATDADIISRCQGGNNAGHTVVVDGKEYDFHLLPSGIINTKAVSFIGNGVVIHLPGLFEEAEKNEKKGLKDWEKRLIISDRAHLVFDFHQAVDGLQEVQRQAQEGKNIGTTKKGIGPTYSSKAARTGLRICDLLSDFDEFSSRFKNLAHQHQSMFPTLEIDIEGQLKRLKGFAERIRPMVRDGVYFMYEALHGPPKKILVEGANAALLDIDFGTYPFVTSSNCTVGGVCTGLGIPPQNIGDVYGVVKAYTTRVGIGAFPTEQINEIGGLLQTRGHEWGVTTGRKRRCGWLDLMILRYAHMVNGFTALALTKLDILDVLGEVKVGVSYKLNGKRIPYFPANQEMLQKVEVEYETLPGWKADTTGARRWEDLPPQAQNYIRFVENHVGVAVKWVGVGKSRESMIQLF
# UniProt Q9Y6K8: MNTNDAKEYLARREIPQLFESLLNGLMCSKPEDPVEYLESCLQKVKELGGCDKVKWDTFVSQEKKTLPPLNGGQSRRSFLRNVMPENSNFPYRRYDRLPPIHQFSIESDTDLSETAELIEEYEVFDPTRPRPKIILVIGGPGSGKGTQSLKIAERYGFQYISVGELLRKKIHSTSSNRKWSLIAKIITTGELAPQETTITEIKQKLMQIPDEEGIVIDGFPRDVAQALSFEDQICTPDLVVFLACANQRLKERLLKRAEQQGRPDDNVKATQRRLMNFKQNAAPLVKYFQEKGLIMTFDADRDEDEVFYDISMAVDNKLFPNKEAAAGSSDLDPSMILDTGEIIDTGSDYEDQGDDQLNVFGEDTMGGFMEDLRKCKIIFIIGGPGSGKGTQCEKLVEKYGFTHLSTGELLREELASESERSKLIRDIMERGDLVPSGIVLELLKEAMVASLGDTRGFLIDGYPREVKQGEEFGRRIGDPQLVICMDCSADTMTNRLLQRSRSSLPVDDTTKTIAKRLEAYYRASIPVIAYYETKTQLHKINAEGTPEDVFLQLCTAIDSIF
# UniProt Q9H568: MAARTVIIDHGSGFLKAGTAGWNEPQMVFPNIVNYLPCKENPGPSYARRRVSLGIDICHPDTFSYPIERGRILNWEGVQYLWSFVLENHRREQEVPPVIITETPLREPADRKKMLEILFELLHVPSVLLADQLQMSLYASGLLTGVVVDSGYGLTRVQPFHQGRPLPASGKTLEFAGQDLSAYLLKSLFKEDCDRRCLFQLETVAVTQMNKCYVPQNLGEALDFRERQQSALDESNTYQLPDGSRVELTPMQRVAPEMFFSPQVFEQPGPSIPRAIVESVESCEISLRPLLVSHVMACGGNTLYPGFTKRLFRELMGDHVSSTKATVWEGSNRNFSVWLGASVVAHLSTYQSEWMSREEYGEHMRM
# UniProt Q9NX46: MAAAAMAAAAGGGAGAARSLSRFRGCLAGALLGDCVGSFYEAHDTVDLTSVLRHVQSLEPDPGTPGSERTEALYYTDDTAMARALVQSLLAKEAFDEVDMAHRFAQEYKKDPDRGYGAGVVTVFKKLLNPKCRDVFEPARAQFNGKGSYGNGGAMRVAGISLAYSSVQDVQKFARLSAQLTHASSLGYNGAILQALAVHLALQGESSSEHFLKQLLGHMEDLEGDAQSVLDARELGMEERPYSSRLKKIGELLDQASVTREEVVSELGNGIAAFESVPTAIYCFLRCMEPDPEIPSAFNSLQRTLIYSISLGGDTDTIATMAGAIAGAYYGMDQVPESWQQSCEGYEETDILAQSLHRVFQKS
# UniProt O95831, whole entry, looked up: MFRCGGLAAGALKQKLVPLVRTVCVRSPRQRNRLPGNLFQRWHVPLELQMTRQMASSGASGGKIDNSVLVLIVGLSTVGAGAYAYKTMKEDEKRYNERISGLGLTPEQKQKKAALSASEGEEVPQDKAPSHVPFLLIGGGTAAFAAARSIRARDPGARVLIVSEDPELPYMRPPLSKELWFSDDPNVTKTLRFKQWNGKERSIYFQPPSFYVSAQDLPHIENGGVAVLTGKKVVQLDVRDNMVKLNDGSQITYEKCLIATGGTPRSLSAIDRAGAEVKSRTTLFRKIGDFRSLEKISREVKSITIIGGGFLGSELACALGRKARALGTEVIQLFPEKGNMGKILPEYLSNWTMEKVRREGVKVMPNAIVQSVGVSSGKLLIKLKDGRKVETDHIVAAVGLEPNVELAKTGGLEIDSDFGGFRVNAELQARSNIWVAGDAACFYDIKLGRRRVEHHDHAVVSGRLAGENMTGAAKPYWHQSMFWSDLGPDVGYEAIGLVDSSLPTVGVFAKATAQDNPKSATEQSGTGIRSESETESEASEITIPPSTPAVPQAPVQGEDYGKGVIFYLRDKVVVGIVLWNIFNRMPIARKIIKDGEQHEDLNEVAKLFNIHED
# The other results are listed elsewhere or left out.
# Columns and labels:
# Assay in all cases: log2 fold change, soluble protein after heating vs DMSO (PISA); higher = thermal stabilisation; K562 lysate, 10 uM; active = over 0.2 and 3.5 SD of the protein, either way, in both replicates (recomputed)
# erlotinib = compound: C#Cc1cccc(Nc2ncnc3cc(OCCOC)c(OCCOC)cc23)c1 [erlotinib]
# In short: (§1)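 K562 pellets were dounce-homogenised in PBS pH 7.4 with 1 mM MgCl2, and the crude extract at 1 mg/mL protein was treated with 10 μM compound for 30 min. Aliquots were heated for 3 min across 48°C-58°C, pooled, and brought to 0.5% NP-40 at 4°C; soluble protein was the supernatant after 21,000xg for 90 min. Soluble protein was quantified by TMTpro 16plex LC-MS/MS with channel sums equalised, and reported as log2 fold change in thermal stability against DMSO controls, with values from duplicates.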
# [1] = compound: C/C(=N\NC(=O)C1=CC(=CC=C1)S(=O)(=O)N2CCOCC2)/C3=C(C=CC(=C3)Cl)O
# In short: as §1
# [2] = compound: C1=CC(=CC=C1C2=NC3=C(N2)C=C(C=C3)C(=O)N)OC4=CC=C(C=C4)Cl
# In short: as §1
# [3] = compound: C1=CC2=C(C=CC(=C2)/C=C\3/C(=O)NC(=NCC4=CC=CS4)S3)N=C1
# In short: as §1
# [4] = compound: C1=CC2=NC=CN=C2C=C1/C=C/3\C(=O)NC(=O)S3
# In short: as §1
# [5] = compound: C1=CC=C(C=C1)C2=NC(=C(N2)C3=CC=NC=C3)C4=CC(=C(C=C4)Cl)O
# In short: as §1
# [6] = compound: C1=CC=C2C(=C1)C3=NNC4=CC=CC(=C43)C2=O
# In short: as §1
# [7] = compound: C1CCN(C1)C(=O)NC2=CC=CC(=C2)NC3=NC=C(C(=N3)NCCC4=CN=CN4)Br
# In short: as §1
# [8] = compound: C1CN(CCC1(CC2=CC=C(C=C2)Cl)N)C3=NC=NC4=C3C=CN4
# In short: as §1
# IRAK-1-4 Inhibitor I = compound: C1COCCN1CCN2C3=CC=CC=C3N=C2NC(=O)C4=CC(=CC=C4)[N+](=O)[O-] [IRAK-1-4 Inhibitor I]
# In short: as §1
# ibrutinib = compound: C=CC(=O)N1CCC[C@@H](n2nc(-c3ccc(Oc4ccccc4)cc3)c3c(N)ncnc32)C1 [ibrutinib]
# In short: as §1
# [9] = compound: CC(=O)c1cnc2ccc(-c3cc(Cl)c(O)c(Cl)c3)nc2c1N[C@H]1CC[C@H](CN(C)C)CC1
# In short: as §1
# ralimetinib = compound: CC(C)(C)Cn1c(N)nc2ccc(-c3[nH]c(C(C)(C)C)nc3-c3ccc(F)cc3)nc21 [ralimetinib]
# In short: as §1
# [10] = compound: CC(C)(O)CC(=O)NCCn1ccc2ncnc(Nc3ccc(Oc4cccc(C(F)(F)F)c4)c(Cl)c3)c21
# In short: as §1
# [11] = compound: CC(C)C1=C2N=C(C=C(N2N=C1)NCC3=CC=CC=C3)NCCCCCCN
# In short: as §1
# [12] = compound: CC1=C(C(CC(=O)N1)C2=CC=C(C=C2)C(F)(F)F)C(=O)NC3=C(C=C4C(=C3)C=NN4)F
# In short: as §1
# [13] = compound: CC1=C(C2=C(C=C1)C(=O)C3=CC=CC=C3N2CCCN)C
# In short: as §1
# [14] = compound: CC1=C(C=C(C=C1)NC(=O)C2=CC(=CC=C2)C(C)(C)C#N)NC3=CC4=C(C=C3)N=CN(C4=O)C
# In short: as §1
# [15] = compound: CC1=C(C=C(C=C1)NC(=O)C2=CC(=CC=C2)N(C)C)NC(=O)C3=CC=C(C=C3)O
# In short: as §1
# [16] = compound: CC1=CC=C(C=C1)SC2=C3C=C(SC3=CN=C2)C(=O)N
# In short: as §1
Target,log2 fold change (erlotinib),log2 fold change [1],log2 fold change [2],log2 fold change [3],log2 fold change [4],log2 fold change [5],log2 fold change [6],log2 fold change [7],log2 fold change [8],log2 fold change (IRAK-1-4 Inhibitor I),log2 fold change (ibrutinib),log2 fold change [9],log2 fold change (ralimetinib),log2 fold change [10],log2 fold change [11],log2 fold change [12],log2 fold change [13],log2 fold change [14],log2 fold change [15],log2 fold change [16]
ACSF3 (UniProt Q4G176),inactive: 0.023,inactive: 0.076,inactive: 0.07,inactive: 0.081,inactive: 0.031,inactive: 0.002,inactive: -0.101,inactive: -0.053,inactive: 0.056,inactive: 0.004,inactive: 0.022,inactive: 0.026,inactive: -0.044,inactive: 0.021,inactive: -0.002,inactive: 0.011,inactive: 0.047,inactive: -0.044,inactive: 0.032,inactive: 0.002
AKR7A2 (UniProt O43488),inactive: -0.003,inactive: 0.045,inactive: 0.034,inactive: 0.012,inactive: 0.021,inactive: 0.044,inactive: 0.003,inactive: -0.007,inactive: 0.051,inactive: 0.025,inactive: -0.025,inactive: 0.026,inactive: -0.013,inactive: -0.009,inactive: 0.025,inactive: 0.001,inactive: 0.01,inactive: -0.044,inactive: 0,inactive: -0.024
AFDN isoform 1 (UniProt P55196),inactive: 0.013,inactive: -0.017,inactive: -0.012,inactive: -0.013,inactive: -0.012,inactive: -0.002,inactive: -0.02,inactive: -0.015,inactive: 0.002,inactive: 0.007,inactive: -0.006,inactive: -0.006,inactive: 0.01,inactive: -0.007,inactive: -0.013,inactive: -0.011,inactive: -0.002,inactive: 0.012,inactive: 0.016,inactive: 0
AKR1B1 (UniProt P15121),inactive: -0.044,inactive: -0.001,inactive: -0.006,inactive: 0.012,inactive: -0.009,inactive: -0.047,inactive: -0.044,inactive: -0.043,inactive: -0.003,inactive: -0.021,inactive: 0.023,inactive: -0.015,inactive: 0.031,inactive: -0.029,inactive: -0.033,inactive: -0.013,inactive: 0.091,inactive: -0.038,inactive: 0.028,inactive: 0.004
AHCY (UniProt P23526),inactive: -0.003,inactive: 0.046,inactive: 0.016,inactive: -0.019,inactive: -0.003,inactive: 0.022,inactive: 0.007,inactive: 0.008,inactive: -0.002,inactive: 0.015,inactive: 0.005,inactive: -0.01,inactive: 0.008,inactive: 0.052,inactive: 0.001,inactive: -0.038,inactive: 0.001,inactive: -0.002,inactive: -0.026,inactive: 0.003
ACTR6 (UniProt Q9GZN1),inactive: -0.061,inactive: 0.003,inactive: -0.01,inactive: -0.017,inactive: 0.008,inactive: 0.005,inactive: -0.029,inactive: -0.024,inactive: -0.061,inactive: 0.003,inactive: 0.087,inactive: 0.016,inactive: -0.01,inactive: -0.073,inactive: -0.036,inactive: -0.192,inactive: -0.069,inactive: 0.021,inactive: 0.058,inactive: -0.027
ADRM1 (UniProt Q16186),inactive: 0.007,inactive: -0.006,inactive: 0.007,inactive: -0.026,inactive: -0.016,inactive: 0.018,inactive: -0.088,inactive: 0.012,inactive: 0.007,inactive: 0.026,inactive: 0.005,inactive: -0.009,inactive: 0.027,inactive: -0.007,inactive: 0.026,inactive: -0.028,inactive: -0.011,inactive: 0.019,inactive: 0.012,inactive: -0.01
AHCYL1 (UniProt O43865),inactive: -0.015,inactive: 0.018,inactive: -0.034,inactive: -0.009,inactive: -0.006,inactive: 0.008,inactive: -0.073,inactive: -0.024,inactive: 0.009,inactive: 0.007,inactive: 0.014,inactive: -0.02,inactive: -0.004,inactive: 0.022,inactive: 0.003,inactive: 0.016,inactive: -0.065,inactive: -0.028,inactive: 0.009,inactive: 0.021
ADSS1 (UniProt Q8N142),inactive: -0.014,inactive: -0.02,inactive: 0.027,inactive: 0.023,inactive: -0.076,inactive: -0.018,inactive: 0.007,inactive: 0.01,inactive: 0.017,inactive: 0.067,inactive: 0.018,inactive: 0.009,inactive: -0.018,inactive: -0.028,inactive: 0.005,inactive: -0.029,inactive: -0.034,inactive: 0.017,inactive: -0.019,inactive: 0
ACTN1 isoform 3 (UniProt P12814),inactive: -0.02,inactive: 0.002,inactive: 0.016,inactive: -0.01,inactive: -0.004,inactive: -0.018,inactive: 0.026,inactive: 0.001,inactive: 0.002,inactive: 0.003,inactive: 0.004,inactive: 0.014,inactive: 0.008,inactive: -0.018,inactive: -0.012,inactive: -0.009,inactive: 0.018,inactive: 0.016,inactive: -0.011,inactive: 0.006
AK5 (UniProt Q9Y6K8),inactive: -0.07,inactive: 0.017,inactive: -0.026,inactive: 0.016,inactive: 0.008,inactive: -0.038,inactive: 0.065,inactive: 0.033,inactive: 0.009,inactive: -0.04,inactive: 0.024,inactive: -0.01,inactive: 0.004,inactive: -0.023,inactive: 0.063,inactive: -0.138,inactive: -0.052,inactive: -0.043,inactive: -0.008,inactive: -0.001
ACTL8 (UniProt Q9H568),inactive: -0.015,inactive: 0.247,inactive: -0.042,inactive: 0.012,inactive: -0.025,inactive: 0.048,inactive: -0.056,inactive: -0.069,inactive: -0.024,inactive: 0.098,inactive: 0.097,inactive: 0.066,inactive: 0.001,inactive: -0.041,inactive: -0.032,inactive: 0.004,inactive: -0.052,inactive: 0.044,inactive: -0.014,inactive: -0.009
ADNP (UniProt Q9H2P0),inactive: -0.004,inactive: 0.025,inactive: 0.012,inactive: -0.013,inactive: -0.051,inactive: -0.022,inactive: -0.114,inactive: 0.008,inactive: -0.034,inactive: 0.006,inactive: 0.002,inactive: -0.009,inactive: 0.024,inactive: 0.005,inactive: -0.02,inactive: 0.059,inactive: -0.081,inactive: 0.039,inactive: 0.016,inactive: 0.015
ADPRHL2 (UniProt Q9NX46),inactive: -0.031,inactive: 0.038,inactive: 0.022,inactive: -0.039,inactive: 0.012,inactive: 0,inactive: -0.004,inactive: 0.03,inactive: 0.037,inactive: -0.023,inactive: -0.042,inactive: -0.011,inactive: -0.033,inactive: 0.009,inactive: 0.007,inactive: -0.053,inactive: -0.038,inactive: -0.027,inactive: 0.013,inactive: 0.034
ACTG1 (UniProt I3L4N8),inactive: 0.118,inactive: 0.163,inactive: -0.016,inactive: 0.029,inactive: -0.2,inactive: 0.054,inactive: -0.207,inactive: -0.142,inactive: -0.143,inactive: -0.013,inactive: 0.191,inactive: 0.053,inactive: -0.019,inactive: 0.065,inactive: -0.184,inactive: 0.038,active: -0.677,inactive: -0.181,inactive: -0.006,inactive: 0.033
AIFM1 (UniProt O95831),inactive: -0.007,inactive: 0.019,inactive: -0.018,inactive: -0.007,inactive: 0.025,inactive: 0.003,inactive: 0.019,inactive: 0.016,inactive: 0.009,inactive: 0.04,inactive: 0.005,inactive: 0.004,inactive: -0.024,inactive: 0.006,inactive: -0.003,inactive: -0.032,inactive: -0.016,inactive: -0.001,inactive: -0.015,inactive: 0.009

# An excerpt from further up, for reference:
Target,log2 fold change (erlotinib),log2 fold change [1],log2 fold change [2],log2 fold change [3],log2 fold change [4],log2 fold change [5],log2 fold change [6],log2 fold change [7],log2 fold change [8],log2 fold change (IRAK-1-4 Inhibitor I),log2 fold change (ibrutinib),log2 fold change [9],log2 fold change (ralimetinib),log2 fold change [10],log2 fold change [11],log2 fold change [12],log2 fold change [13],log2 fold change [14],log2 fold change [15],log2 fold change [16]
AK5 (UniProt Q9Y6K8),inactive: -0.07,inactive: 0.017,inactive: -0.026,inactive: 0.016,inactive: 0.008,inactive: -0.038,inactive: 0.065,inactive: 0.033,inactive: 0.009,inactive: -0.04,inactive: 0.024,inactive: -0.01,inactive: 0.004,inactive: -0.023,inactive: 0.063,inactive: -0.138,inactive: -0.052,inactive: -0.043,inactive: -0.008,inactive: -0.001
ACTL8 (UniProt Q9H568),inactive: -0.015,inactive: 0.247,inactive: -0.042,inactive: 0.012,inactive: -0.025,inactive: 0.048,inactive: -0.056,inactive: -0.069,inactive: -0.024,inactive: 0.098,inactive: 0.097,inactive: 0.066,inactive: 0.001,inactive: -0.041,inactive: -0.032,inactive: 0.004,inactive: -0.052,inactive: 0.044,inactive: -0.014,inactive: -0.009
ADNP (UniProt Q9H2P0),inactive: -0.004,inactive: 0.025,inactive: 0.012,inactive: -0.013,inactive: -0.051,inactive: -0.022,inactive: -0.114,inactive: 0.008,inactive: -0.034,inactive: 0.006,inactive: 0.002,inactive: -0.009,inactive: 0.024,inactive: 0.005,inactive: -0.02,inactive: 0.059,inactive: -0.081,inactive: 0.039,inactive: 0.016,inactive: 0.015
